These are yes or no findings as the source states them, for the method shown. Binding seen in cells or lysates may run through a third protein.

Protein sequences, listed by entry. Tags and fused reporters are not part of them.
UniProt P08962: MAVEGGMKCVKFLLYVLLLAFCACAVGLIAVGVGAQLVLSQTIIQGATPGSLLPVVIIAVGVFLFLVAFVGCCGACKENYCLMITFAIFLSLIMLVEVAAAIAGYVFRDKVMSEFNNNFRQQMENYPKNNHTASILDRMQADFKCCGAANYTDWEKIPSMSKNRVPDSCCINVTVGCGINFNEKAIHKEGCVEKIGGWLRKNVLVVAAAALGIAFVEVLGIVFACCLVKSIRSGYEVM

This experiment addresses CD63-FTS (human) (UniProt P08962). Nature of the experiment: pull-down; Strep-Tactin pulldown from extracts of WT HeLa cells transfected with FTS-tagged bait; 20 mM HEPES, 200 mM NaCl, 1 mM DTT, 1% DDM; overnight at 4 °C; immunoblotting.

B1: ATG9A (endogenous) (protein, UniProt Q7Z3C6 1-839)
chain: MAQFDTEYQRLEASYSDSPPGEEDLLVHVAEGSKSPWHHIENLDLFFSRVYNLHQKNGFTCMLIGEIFELMQFLFVVAFTTFLVSCVDYDILFANKMVNHSLHPTEPVKVTLPDAFLPAQVCSARIQENGSLITILVIAGVFWIHRLIKFIYNICCYWEIHSFYLHALRIPMSALPYCTWQEVQARIVQTQKEHQICIHKRELTELDIYHRILRFQNYMVALVNKSLLPLRFRLPGLGEAVFFTRGLKYNFELILFWGPGSLFLNEWSLKAEYKRGGQRLELAQRLSNRILWIGIANFLLCPLILIWQILYAFFSYAEVLKREPGALGARCWSLYGRCYLRHFNELEHELQSRLNRGYKPASKYMNCFLSPLLTLLAKNGAFFAGSILAVLIALTIYDEDVLAVEHVLTTVTLLGVTVTVCRSFIPDQHMVFCPEQLLRVILAHIHYMPDHWQGNAHRSQTRDEFAQLFQYKAVFILEELLSPIVTPLILIFCLRPRALEIIDFFRNFTVEVVGVGDTCSFAQMDVRQHGHPQWLSAGQTEASVYQQAEDGKTELSLMHFAITNPGWQPPRESTAFLGFLKEQVQRDGAAASLAQGGLLPENALFTSIQSLQSESEPLSLIANVVAGSSCRGPPLPRDLQGSRHRAEVASALRSFSPLQPGQAPTGRAHSTMTGSGVDARTASSGSSVWEGQLQSLVLSEYASTEMSLHALYMHQLHKQQAQAEPERHVWHRRESDESGESAPDEGGEGARAPQSIPRSASYPCAAPRPGAPETTALHGGFQRRYGGITDPGTVPRVPSHFSRLPLGGWAEDGQSASRHPEPVPEEGSEDELPPQVHKV
Take B1: the binding result is reported as “no binding”.

Values taken from paper PMC8605025.
